Measurements reported in PubChem BioAssay AID652243 (Drosophila RNAi Screening Center, 2013).

Aim: 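Knock-downs that decrease or increase androgen receptor reporter signal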 (primary screen)
System: Drosophila S2R+ cells
Reagent: long dsRNA against Drosophila genes
Duration: 72 h (48 h, then 24 h hormone)
Conditions: synthetic androgen R1881 at 10 nM for 24 h
Measured: 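Per-well raw luminescence of the androgen-driven firefly reporter and of the Renilla control, two replicates each, without normalisation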
Scale: firefly reporter light: higher = more light from androgen-responsive reporter; Renilla control light: higher = more constitutive control signal (cell number, transfection)
Call rule: 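Across duplicate plates, a knock-down whose log firefly/Renilla ratio shifted a set fold down or up from the GFP/LacZ control mean was a hit; the downward cut appears as both 1.5 and 3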
Calls: active = hit: reporter lowered or raised; inactive = no hit
The screen tested about 24,000 reagents; below is an unselected part of those that have a named target and a result. Of all reagents, 246 (1%) were called active. 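Plates not normalised; calls are printed but the firefly/Renilla ratio behind them is not deposited; fold cut for lowering reported inconsistently.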 The raw values are shown without normalisation. Entries without a mark were called inactive. The numbers tell different reagents against one gene apart. Names joined by + are all predicted targets of the reagent. Not given: the amount of reagent.

| gene | reagent no. | firefly reporter light, replicate 1 | firefly reporter light, replicate 2 | Renilla control light, replicate 1 | Renilla control light, replicate 2 |
| --- | --- | --- | --- | --- | --- |
| CG12024 | 1 | 7.61e5 | 3.68e5 | 1.62e6 | 8.80e5 |
| CG12024 | 2 | 2.66e5 | 2.52e5 | 5.86e5 | 7.59e5 |
| CG12024 | 3 | 8.20e5 | 7.37e5 | 1.72e6 | 2.13e6 |
| mldr | 1 | 3.26e5 | 3.68e5 | 2.06e6 | 2.01e6 |
| mldr | 2 | 6.59e5 | 5.51e5 | 1.75e6 | 1.65e6 |
| sut3 | 1 | 3.43e5 | 3.05e5 | 2.00e6 | 2.07e6 |
| sut3 | 2 | 2.28e5 | 2.46e5 | 8.44e5 | 5.86e5 |
| pps | 1 | 1.48e5 | 1.51e5 | 2.26e6 | 2.14e6 |
| pps | 2 | 4.20e5 | 2.78e5 | 5.92e5 | 3.91e5 |
| pps | 3 | 5.25e5 | 4.42e5 | 5.56e5 | 5.41e5 |
| His3:CG33818 + His3:CG33857 + His3:CG33806 + 21 more | 1 | 3.60e5 | 3.63e5 | 37642 | 28430 |
| Mst33A | 1 | 2.61e5 | 2.57e5 | 2.08e6 | 1.92e6 |
| Mst33A | 2 | 3.21e5 | 3.17e5 | 7.22e5 | 8.09e5 |
| Rad51D | 1 | 2.85e5 | 2.60e5 | 1.97e6 | 1.74e6 |
| CG18814 | 1 | 2.93e5 | 1.53e5 | 1.52e6 | 1.50e6 |
| Top3alpha | 1 | 1.07e5 | 1.44e5 | 1.43e6 | 1.52e6 |
| CG31674 | 1 | 1.04e5 | 72416 | 1.01e6 | 8.12e5 |
| CG31674 | 2 | 4.73e5 | 2.13e5 | 9.21e5 | 2.94e5 |
| 5-HT1B | 1 | 1.54e5 | 1.72e5 | 2.61e6 | 2.84e6 |
| 5-HT1B | 2 | 13611 | 13158 | 45963 | 44960 |
| 5-HT1B | 3 | 4.33e5 | 6.29e5 | 9.01e5 | 8.49e5 |
| Cyp4g1 | 1 | 1.02e5 | 85229 | 4.84e5 | 5.23e5 |
| Cyp4g1 | 2 | 3.17e5 | 2.95e5 | 8.28e5 | 5.36e5 |
| CG13738 | 1 | 9.05e5 | 1.37e6 | 2.30e6 | 2.34e6 |
| CG13738 | 2 | 7.01e5 | 9.50e5 | 1.30e6 | 1.28e6 |
| CG11345 | 1 | 2.61e5 | 2.20e5 | 2.57e6 | 1.80e6 |
| CG11345 | 2 | 3.58e5 | 7.90e5 | 4.46e5 | 9.39e5 |
| PolZ1 | 1 | 1.15e6 | 3.83e5 | 2.83e6 | 1.19e6 |
| PolZ1 | 2 | 6.59e5 | 7.50e5 | 1.30e6 | 1.61e6 |
| CG4712 | 1 | 1.66e5 | 1.07e5 | 1.26e6 | 1.40e6 |
| Noc3 | 1 | 77541 | 1.02e5 | 5.18e5 | 4.35e5 |
| Tmx3 | 1 | 38544 | 46558 | 4.23e5 | 3.51e5 |
| Cnx14D | 1 | 4.61e5 | 4.26e5 | 4.16e6 | 4.00e6 |
| Cnx14D | 2 | 1.29e6 | 1.56e6 | 1.01e6 | 1.56e6 |
| CG11807 | 1 | 1.06e6 | 9.97e5 | 2.56e6 | 2.19e6 |
| Sans | 1 | 8.06e5 | 8.71e5 | 1.14e6 | 1.39e6 |
| Sans | 2 | 6.09e5 | 5.03e5 | 1.55e6 | 1.46e6 |
| AOX4 | 1 | 97949 | 82888 | 1.22e6 | 1.36e6 |
| AOX4 | 2 | 2.92e5 | 3.00e5 | 4.75e5 | 7.37e5 |
| viaf | 1 | 9.71e5 | 8.31e5 | 1.71e6 | 1.73e6 |
| Edg78E | 1 | 2.60e5 | 1.88e5 | 2.96e6 | 2.66e6 |
| Edg78E | 2 | 2.24e5 | 2.91e5 | 7.84e5 | 8.22e5 |
| TwdlJ | 1 | 2.45e5 | 2.89e5 | 2.55e6 | 2.64e6 |
| chic | 1 | 2.29e5 | 2.15e5 | 2.69e6 | 1.78e6 |
| SmydA-1 | 1 | 7.29e5 | 4.64e5 | 2.68e6 | 2.14e6 |
| SrpRalpha | 1 | 89226 | 76158 | 4.35e5 | 3.68e5 |
| CG14355 | 1 | 1.22e5 | 82902 | 5.09e5 | 6.64e5 |
| Snmp1 | 1 | 4.89e5 | 4.71e5 | 2.58e6 | 2.40e6 |
| inc | 1 | 3.02e5 | 2.67e5 | 3.06e6 | 2.68e6 |
| inc | 2 | 5.09e5 | 5.32e5 | 1.45e6 | 1.31e6 |
| inc | 3 | 3.77e5 | 1.97e5 | 1.15e6 | 7.73e5 |
| jb | 1 | 2.81e5 | 1.95e5 | 1.07e6 | 4.25e5 |
| lectin-24A | 1 | 1.28e5 | 1.53e5 | 7.08e5 | 9.18e5 |
| RanBP3 | 1 | 6.01e5 | 5.78e5 | 1.92e6 | 2.54e6 |
| RanBP3 | 2 | 3.12e5 | 2.49e5 | 6.79e5 | 9.09e5 |
| Gen | 1 | 1.10e6 | 8.37e5 | 1.66e6 | 1.22e6 |
| NSD | 1 | 1.87e5 | 2.28e5 | 2.53e6 | 2.92e6 |
| CG34325 | 1 | 5.40e5 | 5.18e5 | 3.73e6 | 4.17e6 |
| CG34325 | 2 | 6.14e5 | 5.61e5 | 3.93e6 | 3.95e6 |

Laid out differently: results already given.
gene,reagent no.,"firefly reporter light, replicate 1","firefly reporter light, replicate 2","Renilla control light, replicate 1","Renilla control light, replicate 2"
5-HT1B,1,1.54e5,1.72e5,2.61e6,2.84e6
5-HT1B,2,13611,13158,45963,44960
5-HT1B,3,4.33e5,6.29e5,9.01e5,8.49e5
Cyp4g1,1,1.02e5,85229,4.84e5,5.23e5
Cyp4g1,2,3.17e5,2.95e5,8.28e5,5.36e5
CG13738,1,9.05e5,1.37e6,2.30e6,2.34e6
CG13738,2,7.01e5,9.50e5,1.30e6,1.28e6
